Results as given in patent US20030228675A1, “ATM related kinase ATX, nucleic acids encoding same and methods of use” (priority 2002, published 2003).
For at least one compound, name, drawing or mass did not settle the structure.

System: GAL4-hUpf11019-1118
Assay: GAL4-hUpf1 mobility shift assay
Type: cell-based, human
Conditions: U2OS, 20 μM, 30 min pretreatment

COC[C@H]1OC(=O)c2coc3c2[C@@]1(C)C1=C(C3=O)[C@@H]2CCC(=O)[C@@]2(C)C[C@H]1OC(C)=O [wortmannin]
FBS- or UV-induced generation of the most slowly migrating form of GAL4-hUpf11019-1118: preferentially inhibited
